PubChem BioAssay AID652272, Drosophila RNAi Screening Center – 2013
The screen tested about 21,000 reagents; shown is a random part of those that have a named target and a result. Over the whole deposit, 503 (2.4%) are marked active. 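Raw plate light values, not normalised; calls rest on replicate z-scores that were not deposited; hits include reporter decreases as well as increases.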 Names joined by + are all predicted targets of the reagent. Not stated in the record: the amount of reagent, the time to read-out.

Test: 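Genome-wide knock-down search for components of Hedgehog signalling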 (primary screen)
Cells: Drosophila clone 8 (Cl8) cells
Reagents: long dsRNA against Drosophila genes
Detection: 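Firefly light from a Hedgehog-responsive ptc promoter reporter and Renilla reference light, both read on a plate reader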
Reading the numbers: firefly Hh reporter signal: higher = more ptc reporter light; Renilla reference signal: higher = more Renilla control light
Hit rule: 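Hit when the z-score averaged over two replicates is under -2 or over +3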
Meaning of the calls: active = hit: reporter lowered or raised; inactive = not a hit

{"gene knocked down": "HP4 (Heterochromatin protein 4)", "DRSC id": "DRSC10958", "firefly Hh reporter signal, replicate 1": 95827, "firefly Hh reporter signal, replicate 2": 67197, "Renilla reference signal, replicate 1": 4034, "Renilla reference signal, replicate 2": 2941, "call": "inactive"}
{"gene knocked down": "Cap-D2 (CAP-D2 condensin subunit)", "DRSC id": "DRSC15401", "firefly Hh reporter signal, replicate 1": 79157, "firefly Hh reporter signal, replicate 2": 90963, "Renilla reference signal, replicate 1": 2192, "Renilla reference signal, replicate 2": 2994, "call": "inactive"}
{"gene knocked down": "l(2)10685 (lethal (2) 10685)", "DRSC id": "DRSC00665", "firefly Hh reporter signal, replicate 1": 1.05e5, "firefly Hh reporter signal, replicate 2": 55816, "Renilla reference signal, replicate 1": 4288, "Renilla reference signal, replicate 2": 2376, "call": "inactive"}
{"gene knocked down": "BEAF-32 + CG42254 (retired record)", "DRSC id": "DRSC05503", "firefly Hh reporter signal, replicate 1": 1.85e5, "firefly Hh reporter signal, replicate 2": 2.91e5, "Renilla reference signal, replicate 1": 4736, "Renilla reference signal, replicate 2": 11249, "call": "inactive"}
{"gene knocked down": "lin (lines)", "DRSC id": "DRSC07644", "firefly Hh reporter signal, replicate 1": 1.72e5, "firefly Hh reporter signal, replicate 2": 67941, "Renilla reference signal, replicate 1": 4560, "Renilla reference signal, replicate 2": 6667, "call": "inactive"}
{"gene knocked down": "CG15439", "DRSC id": "DRSC00453", "firefly Hh reporter signal, replicate 1": 3.56e5, "firefly Hh reporter signal, replicate 2": 1.24e5, "Renilla reference signal, replicate 1": 5856, "Renilla reference signal, replicate 2": 5856, "call": "inactive"}
{"gene knocked down": "eEF5 (eukaryotic translation elongation factor 5)", "DRSC id": "DRSC04681", "firefly Hh reporter signal, replicate 1": 72881, "firefly Hh reporter signal, replicate 2": 76728, "Renilla reference signal, replicate 1": 1568, "Renilla reference signal, replicate 2": 7337, "call": "inactive"}
{"gene knocked down": "TwdlO (TweedleO)", "DRSC id": "DRSC16043", "firefly Hh reporter signal, replicate 1": 1.20e5, "firefly Hh reporter signal, replicate 2": 1.17e5, "Renilla reference signal, replicate 1": 1864, "Renilla reference signal, replicate 2": 3092, "call": "inactive"}

Quoted from above, 2 entries:
{"gene knocked down": "Cap-D2 (CAP-D2 condensin subunit)", "DRSC id": "DRSC15401", "firefly Hh reporter signal, replicate 1": 79157, "firefly Hh reporter signal, replicate 2": 90963, "Renilla reference signal, replicate 1": 2192, "Renilla reference signal, replicate 2": 2994, "call": "inactive"}
{"gene knocked down": "l(2)10685 (lethal (2) 10685)", "DRSC id": "DRSC00665", "firefly Hh reporter signal, replicate 1": 1.05e5, "firefly Hh reporter signal, replicate 2": 55816, "Renilla reference signal, replicate 1": 4288, "Renilla reference signal, replicate 2": 2376, "call": "inactive"}

Further entries follow:
{"gene knocked down": "VhaAC39-2 (Vacuolar H[+] ATPase AC39 subunit 2)", "DRSC id": "DRSC15609", "firefly Hh reporter signal, replicate 1": 6.35e5, "firefly Hh reporter signal, replicate 2": 1.45e5, "Renilla reference signal, replicate 1": 30919, "Renilla reference signal, replicate 2": 4853, "call": "inactive"}
{"gene knocked down": "ihog (interference hedgehog)", "DRSC id": "DRSC03157", "firefly Hh reporter signal, replicate 1": 48732, "firefly Hh reporter signal, replicate 2": 83104, "Renilla reference signal, replicate 1": 2812, "Renilla reference signal, replicate 2": 2953, "call": "inactive"}
{"gene knocked down": "nesd (nessun dorma)", "DRSC id": "DRSC02099", "firefly Hh reporter signal, replicate 1": 95505, "firefly Hh reporter signal, replicate 2": 71712, "Renilla reference signal, replicate 1": 3131, "Renilla reference signal, replicate 2": 2505, "call": "inactive"}
{"gene knocked down": "CG13074", "DRSC id": "DRSC09957", "firefly Hh reporter signal, replicate 1": 1.78e5, "Renilla reference signal, replicate 1": 5875, "Renilla reference signal, replicate 2": 4736, "call": "inactive"}
{"gene knocked down": "COX8 (Cytochrome c oxidase subunit 8)", "DRSC id": "DRSC11814", "firefly Hh reporter signal, replicate 1": 62806, "firefly Hh reporter signal, replicate 2": 83170, "Renilla reference signal, replicate 1": 2025, "Renilla reference signal, replicate 2": 2069, "call": "inactive"}
{"gene knocked down": "Ppa (Partner of paired)", "DRSC id": "DRSC04598", "firefly Hh reporter signal, replicate 1": 1.47e5, "firefly Hh reporter signal, replicate 2": 87121, "Renilla reference signal, replicate 1": 3803, "Renilla reference signal, replicate 2": 6324, "call": "inactive"}
